Results as given in patent US20260000597A1 (priority 2018, published 2026).
Part of at least one peptide drawing is inferred or uncertain, most often the ends. Non-standard residues stand in square brackets, D forms with d. Residues, ends and D or L forms follow the SMILES beside them. No end group written: not given here. *: point of attachment. Palmitoyl = CCCCCCCCCCCCCCCC(=O)*; Dab = NCC[C@H](N)C(=O)O; NHBn = c1ccc(CN*)cc1; βAla = NCCC(=O)O

The chains behind the UniProt entries cited, without tags or fusion partners. Residues count along the entry.
UniProt P02708, 21-457: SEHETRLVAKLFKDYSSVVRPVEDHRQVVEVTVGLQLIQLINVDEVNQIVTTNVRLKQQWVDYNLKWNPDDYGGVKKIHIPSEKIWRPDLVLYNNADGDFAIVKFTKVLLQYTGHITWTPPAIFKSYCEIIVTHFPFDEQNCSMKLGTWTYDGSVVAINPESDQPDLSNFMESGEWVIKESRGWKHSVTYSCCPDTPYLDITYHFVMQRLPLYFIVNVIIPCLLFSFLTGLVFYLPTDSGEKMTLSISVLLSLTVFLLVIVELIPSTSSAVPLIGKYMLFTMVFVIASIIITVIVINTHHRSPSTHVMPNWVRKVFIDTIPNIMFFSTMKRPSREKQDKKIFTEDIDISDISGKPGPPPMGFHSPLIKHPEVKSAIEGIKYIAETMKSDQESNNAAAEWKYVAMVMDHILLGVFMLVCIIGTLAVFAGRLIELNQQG

Tests used:
BALB/c mice [1] = assay: CatWalk animal efficacy assay after IM injection; format: in vivo; conditions: 10 mg/kg IM right hind thigh muscle, 30 minutes after injection vs before
BALB/c mice [2] = assay: Digit abduction score (DAS) assay, animal efficacy (ED50); format: in vivo
AchR = AchR (Homo sapiens, UniProt P02708); format: cell-based; design: endogenous in cells; host or cells: TE671; conditions: TE671 cells
[3] = target: Acetylcholine receptor proteins (AchR) (Homo sapiens, UniProt P02708); format: binding; conditions: SPR
Experimental: Spep-1 to Spep-11 selected in Example 1 were synthesized, and the AchR binding affinity was compared thereamong using a surface plasmon resonance (SPR) analyzer (Biacore3000, Biacore A, Sweden). […]
The treatment concentrations of Spep-2 were 0.12 to 1 μM, and the dissociation constant was compared while Synake was used as a positive control.

Q: Which “area where the sole of the right hind leg touched the floor” value (BALB/c mice [1]) does the source give for `CCCCCCCCCCCCCCCC(=O)N[C@@H](CO)C(=O)N[C@@H](CC(N)=O)C(=O)N[C@H](C(=O)N[C@@H](CCCCN)C(=O)N[C@@H](CCCNC(=N)N)C(=O)N[C@@H](CCCCN)C(=O)N[C@@H](CCCNC(=N)N)C(=O)NCC(=O)N[C@@H](CCCNC(=N)N)C(=O)N[C@@H](CS)C(=O)N[C@@H](CCCCN)C(=O)N1CCC[C@H]1C(=O)N[C@@H](Cc1ccc(O)cc1)C(=O)N[C@@H](CCCNC(=N)N)C(=O)O)C(C)C` [Palmitoyl-L3-37] (Palmitoyl-SNVKRKRGRCKPYR-OH) here?
A: reduced

Q: What about the “average value of the maximum values of area” value (BALB/c mice [1]) of the same compound?
A: also reduced

Q: What about the DAS (BALB/c mice [2]; 1 mg/kg IM, 10 minutes (Day 0) after administration) of the same compound?
A: 2

Q: What about the DAS (BALB/c mice [2]; 1 mg/kg group as printed a second time, named with the controls, 10 minutes (Day 0)) of the same compound?
A: 0

Q: And the DAS (BALB/c mice [2]; 3 mg/kg IM, 10 minutes (Day 0) after administration)?
A: 4

Q: And the DAS (BALB/c mice [2]; 10 mg/kg IM, 10 minutes (Day 0) after administration)?
A: 4

Q: What about the DAS (BALB/c mice [2]; 25 mg/kg IM, 10 minutes (Day 0) after administration) of the same compound?
A: 4

Q: And the DAS (BALB/c mice [2]; 25 mg/kg, after 19 days of administration)?
A: ≤ 1

Q: What about the DAS (BALB/c mice [2]; 25 mg/kg, during the 7-day observation) of the same compound?
A: 4

Q: What about the reversibility of efficacy (BALB/c mice [2]; 25 mg/kg, observed until the 21st day) of the same compound?
A: reversible

Q: What about the “efficacy (ED50)” value (BALB/c mice [2]; DAS assay, IM, mice) of the same compound?
A: 1 mg/kg

Q: Which results are given for `NCCC(=O)N1CCC[C@H]1C(=O)N[C@@H](CCN)C(=O)NCc1ccccc1` [Synake, reference compound] (H-[βAla]-Pro-[Dab]-NHBn; N-terminus and C-terminus assumed)?
A: IC50 (AchR): 75 µM; Kd ([3]; read-out: dissociation constant (Kd) for AchR): 2300 µM

Q: How did the “nicotinic acetylcholine receptor inhibitory effects” value (AchR; nicotine treatment, compared with Synake) turn out when WTWKGKGTLNR [Spep-1, WTWKGKGTLNR] was run?
A: excellent nicotinic acetylcholine receptor inhibitory effects

Q: And the AchR binding affinity ([3]; 10 μM peptides, compared with Synake)?
A: high AchR binding affinity compared with Synake

Q: Which “AchR binding affinity compared with Spep-2” value [3] does the source give for `CCCCCCCCCCCCCCCC(=O)N[C@@H](Cc1c[nH]c2ccccc12)C(=O)N[C@H](C(=O)N[C@@H](Cc1c[nH]c2ccccc12)C(=O)N[C@@H](CCCCN)C(=O)NCC(=O)N[C@@H](CCCNC(=N)N)C(=O)N[C@@H](CCCCN)C(=O)N[C@@H](CO)C(=O)N[C@@H](CC(C)C)C(=O)N[C@@H](CC(C)C)C(=O)N[C@@H](CCCNC(=N)N)C(=O)O)[C@@H](C)O` [Palmitoyl-Spep-2] (Palmitoyl-WTWKGRKSLLR-OH) here?
A: stronger than that of Spep-2
